# In patent US10363261B2, “Enolase inhibitors and methods of treatment therewith” (Board of Regents, The University of Texas System, priority 2015, dated 2019):
# Protein sequences, listed by entry. Tags and fused reporters are not part of them.
# UniProt P09104, whole entry: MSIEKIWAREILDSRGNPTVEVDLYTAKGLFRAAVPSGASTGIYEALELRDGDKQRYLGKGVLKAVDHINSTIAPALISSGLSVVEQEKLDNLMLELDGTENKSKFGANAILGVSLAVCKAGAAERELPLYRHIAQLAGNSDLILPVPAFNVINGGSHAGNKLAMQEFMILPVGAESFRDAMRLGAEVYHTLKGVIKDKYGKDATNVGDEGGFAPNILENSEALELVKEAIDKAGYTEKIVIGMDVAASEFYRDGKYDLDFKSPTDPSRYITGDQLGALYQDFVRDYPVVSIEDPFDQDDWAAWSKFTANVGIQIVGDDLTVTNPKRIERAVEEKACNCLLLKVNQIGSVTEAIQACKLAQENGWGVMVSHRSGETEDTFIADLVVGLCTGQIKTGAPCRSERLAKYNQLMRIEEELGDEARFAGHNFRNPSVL
# At least one structure is not confirmed: it was looked up by name or label, or the drawing left a doubt.
# Tests used:
# [1] = test system: lactate/glucose in D423 ENO1-rescued glioma cells; test: 13C-NMR tracing of uniformly labeled 13C-glucose to 13C-lactate, rescued cells; settings: even at 200 μM
# ENO2 [2] = molecular target: T1, ENO2 (Homo sapiens, UniProt P09104); test: Thermal shift assay on recombinant human ENO2 expressed in E. coli; format: binding; design: DNA encoding full length Human Enolase 2 was cloned into pJL-H6 plasmid expression vector; His tag (pJL-H6) (C); made in house; host or cells: E. coli BL21 (DE3); settings: 10 μM inhibitor
# Protocol: (§1) Thermal shift assays were conducted as described in Martinez Molina, et al. (2013), on lysates of D423 cell line overexpressing ENO1 and ENO2, on recombinant human ENO1 and ENO2 purified from E. coli as well as intact D423 ENO2 overexpressing glioma cells. […] Lysates were diluted (1:100) in Enolase enzymatic activity buffer as mentioned above. Diluted lysates were treated with SF2312, PhAH or vehicle and heated on a C1000 Thermal cycler (Bio-rad) with a linear temperature gradient (50 to 82.5° C. in 2.5° C. increments) for 3 minutes (FIG. 24). The lysates were then centrifuged at 20,000 g for 10 minutes. Supernatant and pellet were then separated and NuPage LDS Sample buffer (Life Technologies # NP0007) was added. Western Blots were performed as described previously (Muller, et al., 2012). The following antibodies were used: ENO1 (Abcam # ab155102), ENO2 (Dako # M087301-2), Vinculin (EMD Millipore #05-386), pan-ENO (Santa Cruz Biotechnology, sc-7455) and TPI (Proteintech #10713-1-AP). Recombinant human ENO2: The same procedure was carried out on purified recombinant ENO2 from E. coli, utilizing the purified protein generated for the X-ray crystallography studies. […]
# enolase 2 = molecular target: T2, enolase 2 (Homo sapiens, UniProt P09104); test: Thermal shift assay in intact glioma cells overexpressing ENO2 (D423 ENO2); format: cell-based; settings: 100 μM inhibitor
# T2 construct: expressed in transfected cells; host or cells: D423 (D423-MG) human glioma cells, clone pCMV ENO2 1x
# Protocol: as §1
# ENO2 [3] = molecular target: T1, ENO2; test: Ligand-induced thermal shift assay on cell lysates (D423 overexpressing ENO2); format: binding; design: expressed in transfected cells; host or cells: D423 (D423-MG) human glioma cells, clone pCMV ENO2 1x; settings: 1 μM inhibitor
# [4] = test system: Vinculin or Triosephosphate isomerase; test: Thermal shift assay, internal controls; format: binding, human
# Protocol: as §1
smiles,measurement,setting,value
"O=C(CP(=O)(O)O)NO [PhAH, phosphonoacetohydroxamate]",effect on lactate/glucose in ENO1-rescued cells,[1],neither PhAH nor SF2312 decreased lactate/glucose
same,thermal stabilization of recombinant ENO2,ENO2 [2],~5 °C
same,shift of the thermal melting curve of ENO2 in intact glioma cells,enolase 2,~5 °C
same,shift in the thermal denaturation of ENO2,ENO2 [3],~2.5 °C
same,effect on the thermal stability of the internal controls,[4],neither PhAH nor SF2312 had any effect
